This is one part of the list.
Assays:
Assay in all cases: log2 fold change, soluble protein after heating vs DMSO (PISA); higher = thermal stabilisation; K562 cells, 10 uM, 30 min; active = over 0.2 and 3.5 SD of the protein, either way, in both replicates (recomputed)
[1] = compound: CS(=O)(=O)c1ccc(-c2cnc(N)c(C(=O)Nc3ccccc3)n2)cc1
In short: (§1)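 Values are thermal stability changes relative to control samples and are taken from duplicates. They are stated as log2 fold changes. Before quantification by TMTpro 16plex LC-MS/MS with equalised channel sums, K562 cells at 2×10^6 cells/mL were treated with 10 μM compound for 30 min, heated in aliquots for 3 min across 48°C-58°C, pooled, extracted in PBS with 0.5% NP-40 at 4°C, and centrifuged at 21,000xg for 90 min to give the soluble supernatant.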

Protein sequences, listed by entry. Tags and fused reporters are not part of them. Lines headed by an entry give the natural chain unless they say otherwise; changes in a name come on top.
UniProt Q15543, whole entry, looked up: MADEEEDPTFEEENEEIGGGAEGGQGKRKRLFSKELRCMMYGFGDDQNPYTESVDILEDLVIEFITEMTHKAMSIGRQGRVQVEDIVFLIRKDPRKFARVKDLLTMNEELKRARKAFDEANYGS
UniProt O75486: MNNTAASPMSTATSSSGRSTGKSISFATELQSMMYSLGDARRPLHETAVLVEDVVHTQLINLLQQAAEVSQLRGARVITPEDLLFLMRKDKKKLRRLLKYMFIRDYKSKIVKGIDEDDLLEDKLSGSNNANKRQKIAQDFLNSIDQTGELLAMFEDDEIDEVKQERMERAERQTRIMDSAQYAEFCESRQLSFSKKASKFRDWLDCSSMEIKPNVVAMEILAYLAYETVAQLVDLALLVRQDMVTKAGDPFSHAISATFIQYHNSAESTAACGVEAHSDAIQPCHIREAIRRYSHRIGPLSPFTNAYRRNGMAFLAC
UniProt Q13033: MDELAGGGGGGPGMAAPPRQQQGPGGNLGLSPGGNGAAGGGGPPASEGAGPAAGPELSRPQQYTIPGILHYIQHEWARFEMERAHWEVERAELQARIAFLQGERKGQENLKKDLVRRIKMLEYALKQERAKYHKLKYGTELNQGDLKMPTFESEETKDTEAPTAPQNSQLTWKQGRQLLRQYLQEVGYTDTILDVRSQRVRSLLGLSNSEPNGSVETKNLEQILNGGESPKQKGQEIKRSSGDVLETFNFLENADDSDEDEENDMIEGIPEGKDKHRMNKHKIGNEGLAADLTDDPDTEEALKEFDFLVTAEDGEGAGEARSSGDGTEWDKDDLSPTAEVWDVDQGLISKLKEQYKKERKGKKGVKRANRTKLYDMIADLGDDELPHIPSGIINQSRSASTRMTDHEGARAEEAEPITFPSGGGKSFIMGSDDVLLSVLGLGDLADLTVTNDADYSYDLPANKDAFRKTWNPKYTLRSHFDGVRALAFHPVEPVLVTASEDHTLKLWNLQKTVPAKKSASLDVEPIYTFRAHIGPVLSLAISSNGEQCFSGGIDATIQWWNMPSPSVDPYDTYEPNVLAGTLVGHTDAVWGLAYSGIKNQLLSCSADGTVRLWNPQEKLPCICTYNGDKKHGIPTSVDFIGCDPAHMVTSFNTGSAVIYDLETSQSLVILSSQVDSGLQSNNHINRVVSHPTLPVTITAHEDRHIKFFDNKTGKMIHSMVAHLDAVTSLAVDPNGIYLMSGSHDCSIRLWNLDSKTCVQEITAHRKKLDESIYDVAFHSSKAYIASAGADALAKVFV
UniProt Q8N2H4: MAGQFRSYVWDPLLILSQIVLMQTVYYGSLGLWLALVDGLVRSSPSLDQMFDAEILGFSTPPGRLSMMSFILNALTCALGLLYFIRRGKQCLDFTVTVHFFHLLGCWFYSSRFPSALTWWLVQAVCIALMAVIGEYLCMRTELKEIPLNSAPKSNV
UniProt Q9UL54: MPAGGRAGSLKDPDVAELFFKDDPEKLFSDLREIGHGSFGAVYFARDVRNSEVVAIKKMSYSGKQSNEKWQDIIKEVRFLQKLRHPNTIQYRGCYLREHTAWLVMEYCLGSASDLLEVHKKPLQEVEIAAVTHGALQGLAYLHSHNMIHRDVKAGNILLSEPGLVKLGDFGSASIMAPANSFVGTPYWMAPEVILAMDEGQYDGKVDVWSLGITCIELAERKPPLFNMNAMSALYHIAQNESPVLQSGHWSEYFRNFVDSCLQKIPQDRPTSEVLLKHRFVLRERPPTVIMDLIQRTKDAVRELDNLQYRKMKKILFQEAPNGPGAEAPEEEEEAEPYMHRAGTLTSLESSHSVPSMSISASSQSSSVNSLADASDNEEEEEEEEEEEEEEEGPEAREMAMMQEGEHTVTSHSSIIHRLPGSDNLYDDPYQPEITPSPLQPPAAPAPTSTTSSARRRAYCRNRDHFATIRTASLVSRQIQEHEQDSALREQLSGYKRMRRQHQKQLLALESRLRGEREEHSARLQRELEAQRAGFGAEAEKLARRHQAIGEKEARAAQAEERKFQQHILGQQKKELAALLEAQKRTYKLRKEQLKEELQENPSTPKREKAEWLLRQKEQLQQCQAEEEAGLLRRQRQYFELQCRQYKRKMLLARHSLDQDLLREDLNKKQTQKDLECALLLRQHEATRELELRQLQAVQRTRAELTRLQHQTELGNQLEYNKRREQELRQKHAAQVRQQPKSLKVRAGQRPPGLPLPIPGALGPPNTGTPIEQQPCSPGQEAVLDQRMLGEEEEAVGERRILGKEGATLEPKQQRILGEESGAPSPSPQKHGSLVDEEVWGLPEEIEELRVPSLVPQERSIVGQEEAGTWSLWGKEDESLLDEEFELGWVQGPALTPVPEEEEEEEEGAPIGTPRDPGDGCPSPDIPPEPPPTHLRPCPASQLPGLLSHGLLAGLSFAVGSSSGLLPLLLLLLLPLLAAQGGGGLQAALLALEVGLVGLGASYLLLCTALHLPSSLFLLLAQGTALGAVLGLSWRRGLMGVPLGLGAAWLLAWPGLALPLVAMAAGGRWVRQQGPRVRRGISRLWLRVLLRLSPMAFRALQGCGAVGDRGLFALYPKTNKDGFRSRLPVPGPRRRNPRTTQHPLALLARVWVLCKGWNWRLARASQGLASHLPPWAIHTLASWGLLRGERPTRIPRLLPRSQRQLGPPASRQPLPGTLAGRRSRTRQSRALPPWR
UniProt O43759: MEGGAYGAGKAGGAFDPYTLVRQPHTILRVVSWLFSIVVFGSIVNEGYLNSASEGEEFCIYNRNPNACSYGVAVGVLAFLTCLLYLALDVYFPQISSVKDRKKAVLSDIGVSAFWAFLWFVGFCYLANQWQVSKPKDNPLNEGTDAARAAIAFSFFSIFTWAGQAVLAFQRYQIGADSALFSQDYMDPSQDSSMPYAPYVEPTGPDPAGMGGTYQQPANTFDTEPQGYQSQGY
UniProt Q9Y6J9: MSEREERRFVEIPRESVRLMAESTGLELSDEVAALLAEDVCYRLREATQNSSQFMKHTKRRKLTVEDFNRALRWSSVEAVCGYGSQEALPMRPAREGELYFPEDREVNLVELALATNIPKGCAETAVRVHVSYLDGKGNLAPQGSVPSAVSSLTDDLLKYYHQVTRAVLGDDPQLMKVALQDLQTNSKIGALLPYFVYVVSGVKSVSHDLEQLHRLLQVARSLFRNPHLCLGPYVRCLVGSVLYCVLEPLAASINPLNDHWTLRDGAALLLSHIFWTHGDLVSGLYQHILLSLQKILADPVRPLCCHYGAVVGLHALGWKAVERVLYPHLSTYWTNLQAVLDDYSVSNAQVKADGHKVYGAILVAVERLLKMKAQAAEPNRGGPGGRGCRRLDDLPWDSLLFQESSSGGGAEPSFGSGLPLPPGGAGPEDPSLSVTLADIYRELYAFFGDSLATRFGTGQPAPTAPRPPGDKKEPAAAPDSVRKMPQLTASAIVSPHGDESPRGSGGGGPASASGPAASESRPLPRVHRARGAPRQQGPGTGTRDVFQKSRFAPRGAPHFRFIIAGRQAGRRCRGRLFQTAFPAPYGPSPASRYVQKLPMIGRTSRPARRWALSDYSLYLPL
UniProt Q8WUJ0: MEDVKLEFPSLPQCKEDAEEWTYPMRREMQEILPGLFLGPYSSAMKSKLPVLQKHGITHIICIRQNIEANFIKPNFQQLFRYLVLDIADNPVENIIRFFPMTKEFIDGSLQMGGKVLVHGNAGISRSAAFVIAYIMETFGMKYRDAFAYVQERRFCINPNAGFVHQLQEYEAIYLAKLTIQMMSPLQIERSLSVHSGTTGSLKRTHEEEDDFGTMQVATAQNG
UniProt Q16514: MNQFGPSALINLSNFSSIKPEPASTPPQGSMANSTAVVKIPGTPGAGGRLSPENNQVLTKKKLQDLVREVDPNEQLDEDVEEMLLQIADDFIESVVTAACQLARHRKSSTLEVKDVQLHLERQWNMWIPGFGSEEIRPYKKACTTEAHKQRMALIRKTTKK
UniProt Q8WXE9: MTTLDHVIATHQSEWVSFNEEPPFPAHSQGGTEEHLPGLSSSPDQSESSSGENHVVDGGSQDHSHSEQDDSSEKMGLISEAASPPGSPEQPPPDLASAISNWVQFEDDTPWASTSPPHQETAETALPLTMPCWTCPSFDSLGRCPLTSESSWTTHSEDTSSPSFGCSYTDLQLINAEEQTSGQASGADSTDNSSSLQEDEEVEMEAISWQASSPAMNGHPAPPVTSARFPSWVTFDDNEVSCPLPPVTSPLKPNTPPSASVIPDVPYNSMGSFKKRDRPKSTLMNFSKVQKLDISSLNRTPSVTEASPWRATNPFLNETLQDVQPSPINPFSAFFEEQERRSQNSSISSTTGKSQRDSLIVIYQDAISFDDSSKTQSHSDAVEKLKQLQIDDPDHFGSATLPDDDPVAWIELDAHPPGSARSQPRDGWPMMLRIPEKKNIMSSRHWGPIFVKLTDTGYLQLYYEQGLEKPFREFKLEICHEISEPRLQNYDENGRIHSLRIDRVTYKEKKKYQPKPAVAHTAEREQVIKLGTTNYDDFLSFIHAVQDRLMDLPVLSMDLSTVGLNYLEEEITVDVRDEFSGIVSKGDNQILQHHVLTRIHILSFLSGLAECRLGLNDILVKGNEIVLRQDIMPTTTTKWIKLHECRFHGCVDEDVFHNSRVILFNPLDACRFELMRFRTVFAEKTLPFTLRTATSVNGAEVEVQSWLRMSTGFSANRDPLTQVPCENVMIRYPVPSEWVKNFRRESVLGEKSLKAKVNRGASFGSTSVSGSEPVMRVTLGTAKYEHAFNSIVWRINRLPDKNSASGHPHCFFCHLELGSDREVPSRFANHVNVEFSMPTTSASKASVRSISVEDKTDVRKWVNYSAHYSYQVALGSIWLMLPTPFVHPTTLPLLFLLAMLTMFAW
UniProt Q15544, whole entry, looked up: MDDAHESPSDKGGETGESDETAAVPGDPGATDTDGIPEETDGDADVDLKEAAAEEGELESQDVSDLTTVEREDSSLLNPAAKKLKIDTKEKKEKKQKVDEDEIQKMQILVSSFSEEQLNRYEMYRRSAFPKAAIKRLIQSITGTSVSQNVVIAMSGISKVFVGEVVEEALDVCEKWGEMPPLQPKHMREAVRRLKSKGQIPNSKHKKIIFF
UniProt P08247, whole entry, looked up: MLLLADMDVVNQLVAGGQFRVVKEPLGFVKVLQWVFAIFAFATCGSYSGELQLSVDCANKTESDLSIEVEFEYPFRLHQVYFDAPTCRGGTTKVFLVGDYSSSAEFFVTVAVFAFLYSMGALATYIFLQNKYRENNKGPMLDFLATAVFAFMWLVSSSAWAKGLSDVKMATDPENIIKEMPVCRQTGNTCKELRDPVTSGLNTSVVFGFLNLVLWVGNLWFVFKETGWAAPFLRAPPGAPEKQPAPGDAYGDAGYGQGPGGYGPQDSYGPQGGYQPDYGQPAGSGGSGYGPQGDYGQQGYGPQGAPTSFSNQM
UniProt Q9H6P5: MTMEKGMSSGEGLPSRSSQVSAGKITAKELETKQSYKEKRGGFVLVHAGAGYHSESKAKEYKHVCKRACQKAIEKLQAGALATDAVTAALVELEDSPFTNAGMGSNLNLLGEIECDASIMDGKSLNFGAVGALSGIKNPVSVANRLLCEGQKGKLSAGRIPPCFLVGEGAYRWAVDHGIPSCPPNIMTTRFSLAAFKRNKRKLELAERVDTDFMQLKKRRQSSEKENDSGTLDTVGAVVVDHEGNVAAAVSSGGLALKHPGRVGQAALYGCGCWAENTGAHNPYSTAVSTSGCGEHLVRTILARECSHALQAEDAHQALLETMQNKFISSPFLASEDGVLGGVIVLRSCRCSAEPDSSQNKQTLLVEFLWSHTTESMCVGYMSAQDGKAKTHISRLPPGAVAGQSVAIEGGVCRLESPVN
UniProt Q9NYJ8: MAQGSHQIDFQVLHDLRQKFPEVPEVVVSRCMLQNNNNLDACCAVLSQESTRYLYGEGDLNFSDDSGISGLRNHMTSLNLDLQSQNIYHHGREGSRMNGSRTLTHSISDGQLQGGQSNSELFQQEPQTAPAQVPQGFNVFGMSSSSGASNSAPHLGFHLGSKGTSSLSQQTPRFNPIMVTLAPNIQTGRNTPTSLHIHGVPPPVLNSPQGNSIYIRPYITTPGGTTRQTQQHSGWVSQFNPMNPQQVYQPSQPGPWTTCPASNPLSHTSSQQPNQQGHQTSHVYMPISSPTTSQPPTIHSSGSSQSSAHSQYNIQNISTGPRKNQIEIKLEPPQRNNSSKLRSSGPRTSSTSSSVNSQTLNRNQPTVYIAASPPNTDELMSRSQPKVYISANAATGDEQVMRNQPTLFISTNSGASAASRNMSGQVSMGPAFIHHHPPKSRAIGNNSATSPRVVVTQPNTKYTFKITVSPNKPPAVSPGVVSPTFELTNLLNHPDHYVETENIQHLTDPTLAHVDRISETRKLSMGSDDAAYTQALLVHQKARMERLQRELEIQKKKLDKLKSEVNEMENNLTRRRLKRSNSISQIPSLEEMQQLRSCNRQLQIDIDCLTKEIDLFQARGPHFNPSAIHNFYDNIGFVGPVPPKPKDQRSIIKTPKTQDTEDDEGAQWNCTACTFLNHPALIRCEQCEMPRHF

[2] = compound: C[C@@H]1COCCN1C2=NC(=NC(=C2)C3(CC3)S(=O)(=O)C)C4=C5C=CNC5=CC=C4
In short: as §1

duvelisib = compound: C[C@H](Nc1ncnc2nc[nH]c12)c1cc2cccc(Cl)c2c(=O)n1-c1ccccc1 [duvelisib]
In short: as §1

gandotinib = compound: Cc1cc(Nc2cc(CN3CCOCC3)c3nc(C)c(Cc4ccc(Cl)cc4F)n3n2)n[nH]1 [gandotinib]
In short: as §1

tozasertib = compound: Cc1cc(Nc2cc(N3CCN(C)CC3)nc(Sc3ccc(NC(=O)C4CC4)cc3)n2)n[nH]1 [tozasertib]
In short: as §1

[3] = compound: Cc1cc(SCc2sc(-c3ccc(C(F)(F)F)cc3)nc2C)ccc1OCC(=O)O
In short: as §1

ispinesib = compound: Cc1ccc(C(=O)N(CCCN)[C@@H](c2nc3cc(Cl)ccc3c(=O)n2Cc2ccccc2)C(C)C)cc1 [ispinesib]
In short: as §1

crizotinib = compound: C[C@@H](Oc1cc(-c2cnn(C3CCNCC3)c2)cnc1N)c1c(Cl)ccc(F)c1Cl [crizotinib]
In short: as §1

[4] = compound: C[C@H](C1=CC=C(C=C1)C(=O)NC2=C3C=CNC3=NC=C2)N
In short: as §1

doramapimod = compound: Cc1ccc(-n2nc(C(C)(C)C)cc2NC(=O)Nc2ccc(OCCN3CCOCC3)c3ccccc23)cc1 [doramapimod]
In short: as §1

Measured: log2 fold change

TAF13 (UniProt Q15543)
inactive: [1] 0.009 | [2] -0.161 | duvelisib 0.003 | gandotinib 0.141 | tozasertib -0.107 | [3] 0.028 | ispinesib 0.082

SUPT3H isoform 4 (UniProt O75486)
inactive: ispinesib 0.022

STRN3 isoform 2 (UniProt Q13033)
inactive: crizotinib -0.031 | [2] 0.019 | [4] -0.044 | gandotinib -0.115 | tozasertib -0.098 | doramapimod 0.043

SUGP2 (UniProt Q8IX01)
inactive: [1] -0.272 | [2] -0.411

SYS1 (UniProt Q8N2H4)
inactive: duvelisib 0.085 | gandotinib -0.154 | [3] -0.051 | ispinesib -0.128

TAOK2 (UniProt Q9UL54)
inactive: crizotinib 0.157 | [2] -0.108 | gandotinib -0.045 | doramapimod -0.036 | ispinesib 0.035

Fetched one by one from the entries so far, two records:
TAF13 (UniProt Q15543)
inactive: [1] 0.009 | [2] -0.161 | duvelisib 0.003 | gandotinib 0.141 | tozasertib -0.107 | [3] 0.028 | ispinesib 0.082

TAOK2 (UniProt Q9UL54)
inactive: crizotinib 0.157 | [2] -0.108 | gandotinib -0.045 | doramapimod -0.036 | ispinesib 0.035

The results go on:

SYNGR1 isoform 3 (UniProt O43759)
inactive: tozasertib -0.219

TAF6L (UniProt Q9Y6J9)
inactive: [1] -0.035 | [4] 0.058 | gandotinib -0.08 | [3] -0.121 | ispinesib -0.045

STYX (UniProt Q8WUJ0)
inactive: duvelisib 0.104 | gandotinib -0.084 | tozasertib 0.115 | [3] 0.194 | ispinesib 0.192

TAF12 (UniProt Q16514)
inactive: [1] -0.049 | crizotinib -0.06 | gandotinib 0.082 | tozasertib 0.01 | doramapimod 0.096

SUPT7L (UniProt O94864)
inactive: crizotinib 0.057 | doramapimod -0.002 | ispinesib 0.068

STON2 isoform 3 (UniProt Q8WXE9)
inactive: crizotinib -0.053 | gandotinib -0.117 | tozasertib -0.122 | doramapimod 0.036 | ispinesib -0.173

SYK (UniProt P43405)
inactive: [2] -0.093 | [4] 0.053 | [3] 0.405 | doramapimod 0.179 | ispinesib -0.216

TAF11 (UniProt Q15544)
inactive: [1] -0.019 | [4] 0.08 | duvelisib 0.088 | gandotinib -0.046 | tozasertib -0.145 | [3] -0.033 | ispinesib 0.025

SYP (UniProt P08247)
inactive: crizotinib -0.026 | [2] 0.098 | [4] 0.053 | duvelisib -0.034 | gandotinib 0.047 | tozasertib 0.026 | [3] -0.03 | doramapimod 0.028 | ispinesib -0.103

TASP1 (UniProt Q9H6P5)
inactive: [2] -0.617

TAB2 (UniProt Q9NYJ8)
inactive: [1] 0.043 | [2] 0 | tozasertib 0.064 | ispinesib -0.183

Source: the supplement of paper PMC10849652
